Results are given in words; binding and its absence hold for the method and conditions named. A result given as binding can be weak or reduced; the word gives no strength.

Binding data for four substances are collected here from publication PMC8980529, “Complement Factor H-Related Proteins FHR1 and FHR5 Interact With Extracellular Matrix Ligands, Reduce Factor H Regulatory Activity and Enhance Complement Activation” (Frontiers in Immunology, 2022).

Assay [1] addresses T1, Osteoadherin (UniProt Q99983).
T1 sequence: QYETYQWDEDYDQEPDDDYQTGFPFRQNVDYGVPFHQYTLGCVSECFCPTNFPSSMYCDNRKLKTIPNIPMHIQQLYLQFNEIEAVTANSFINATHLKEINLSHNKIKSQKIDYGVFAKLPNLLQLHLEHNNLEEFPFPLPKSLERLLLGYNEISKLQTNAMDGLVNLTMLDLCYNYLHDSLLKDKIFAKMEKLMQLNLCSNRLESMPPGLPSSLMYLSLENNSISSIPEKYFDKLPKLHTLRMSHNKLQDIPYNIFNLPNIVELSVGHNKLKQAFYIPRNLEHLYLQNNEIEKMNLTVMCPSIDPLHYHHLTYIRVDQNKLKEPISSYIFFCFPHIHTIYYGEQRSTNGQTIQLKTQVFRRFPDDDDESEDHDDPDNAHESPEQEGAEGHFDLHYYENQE
In words: ELISA; ECM proteins immobilised (10 µg/ml), incubated with FHR5 and its fragments CCPs 1-4, CCPs 3-7, CCPs 8-9 in equimolar concentrations (100 nM or 200 nM); detected with goat anti-human FHR5; both purified.

The target of assay [2] is T2, Fibromodulin (UniProt Q06828).
T2 sequence: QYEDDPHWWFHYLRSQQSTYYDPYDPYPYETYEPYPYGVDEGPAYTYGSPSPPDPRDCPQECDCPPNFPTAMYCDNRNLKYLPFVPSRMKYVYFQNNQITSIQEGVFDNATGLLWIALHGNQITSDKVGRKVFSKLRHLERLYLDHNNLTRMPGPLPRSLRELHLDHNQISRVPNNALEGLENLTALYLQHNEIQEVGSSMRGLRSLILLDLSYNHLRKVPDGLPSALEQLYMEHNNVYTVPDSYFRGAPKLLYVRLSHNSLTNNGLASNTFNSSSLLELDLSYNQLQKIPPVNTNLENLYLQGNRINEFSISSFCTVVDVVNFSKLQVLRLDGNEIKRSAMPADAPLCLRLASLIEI
The assay is described as above.

The target of assay [3] is T3, Proline/arginine-rich end leucine-rich repeat protein (UniProt P51888).
T3 sequence: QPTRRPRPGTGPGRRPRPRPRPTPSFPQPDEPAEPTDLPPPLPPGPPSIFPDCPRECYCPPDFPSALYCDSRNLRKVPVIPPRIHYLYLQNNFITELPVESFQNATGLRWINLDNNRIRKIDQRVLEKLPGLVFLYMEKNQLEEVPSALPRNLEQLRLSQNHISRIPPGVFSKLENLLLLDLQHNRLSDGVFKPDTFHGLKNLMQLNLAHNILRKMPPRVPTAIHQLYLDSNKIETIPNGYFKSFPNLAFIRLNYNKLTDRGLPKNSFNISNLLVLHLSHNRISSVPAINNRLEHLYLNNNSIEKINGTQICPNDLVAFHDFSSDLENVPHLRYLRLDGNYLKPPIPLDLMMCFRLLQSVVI
The assay is described as above.

Assay [4] deals with T4, Recombinant human factor H-related protein 5 (human) (UniProt Q9BXR6).
T4 sequence: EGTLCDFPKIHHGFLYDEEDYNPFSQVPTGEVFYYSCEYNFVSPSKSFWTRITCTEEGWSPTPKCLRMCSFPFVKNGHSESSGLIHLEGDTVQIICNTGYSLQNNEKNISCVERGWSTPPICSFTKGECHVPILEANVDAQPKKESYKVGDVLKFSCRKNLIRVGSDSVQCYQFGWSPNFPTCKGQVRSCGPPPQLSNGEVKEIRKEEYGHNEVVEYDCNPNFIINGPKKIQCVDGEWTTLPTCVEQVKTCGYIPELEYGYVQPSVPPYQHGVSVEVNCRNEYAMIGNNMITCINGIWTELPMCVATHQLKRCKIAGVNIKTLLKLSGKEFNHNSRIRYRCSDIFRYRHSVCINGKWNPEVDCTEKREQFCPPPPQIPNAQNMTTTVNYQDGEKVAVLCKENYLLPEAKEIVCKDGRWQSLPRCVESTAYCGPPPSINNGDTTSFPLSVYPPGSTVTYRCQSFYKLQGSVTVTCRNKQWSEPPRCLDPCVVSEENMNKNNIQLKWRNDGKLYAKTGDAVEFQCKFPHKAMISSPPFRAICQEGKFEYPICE
In words: ELISA; FHR5, CCPs 1-4, CCPs 3-7, CCPs 8-9 and HSA immobilised at 5 µg/ml, blocked with 4% BSA; 20 µg/ml C3b, iC3b, C3c or 10 µg/ml C3d added; detected with anti-human C3 or anti-human C3d; both purified. On the technique in general: An ELISA detects its analyte on a solid surface through an enzyme-linked reagent.

For the substance “Recombinant human FHR5 fragment CCPs 3-7 (domain or fragment)”, the binding entry in assay [1], in assay [2] and in assay [3] was “binds” each time.

Take Purified human iC3b: in assay [4], the binding result was “binds”.

As to “Recombinant human FHR5 fragment CCPs 1-4 (domain or fragment)”, the binding result in assay [1] is “no binding (tested: 100 nM)”; in assay [2], “no binding (tested: 100 nM)”; in assay [3], “no binding (tested: 200 nM)”.

Turning to “Recombinant human FHR5 fragment CCPs 8-9 (domain or fragment)”, the binding result in assay [1] is recorded as “no binding (tested: 100 nM)”; in assay [2], “no binding (tested: 100 nM)”; in assay [3], “no binding (tested: 200 nM)”.
